{
  "sequences": {"note": "Amino acid sequences for entries named in this document (tags omitted). A change or cut given only in a name is not applied to a line headed by its entry. Residues count along the entry.", "UniProt P06276, residues 29-602": "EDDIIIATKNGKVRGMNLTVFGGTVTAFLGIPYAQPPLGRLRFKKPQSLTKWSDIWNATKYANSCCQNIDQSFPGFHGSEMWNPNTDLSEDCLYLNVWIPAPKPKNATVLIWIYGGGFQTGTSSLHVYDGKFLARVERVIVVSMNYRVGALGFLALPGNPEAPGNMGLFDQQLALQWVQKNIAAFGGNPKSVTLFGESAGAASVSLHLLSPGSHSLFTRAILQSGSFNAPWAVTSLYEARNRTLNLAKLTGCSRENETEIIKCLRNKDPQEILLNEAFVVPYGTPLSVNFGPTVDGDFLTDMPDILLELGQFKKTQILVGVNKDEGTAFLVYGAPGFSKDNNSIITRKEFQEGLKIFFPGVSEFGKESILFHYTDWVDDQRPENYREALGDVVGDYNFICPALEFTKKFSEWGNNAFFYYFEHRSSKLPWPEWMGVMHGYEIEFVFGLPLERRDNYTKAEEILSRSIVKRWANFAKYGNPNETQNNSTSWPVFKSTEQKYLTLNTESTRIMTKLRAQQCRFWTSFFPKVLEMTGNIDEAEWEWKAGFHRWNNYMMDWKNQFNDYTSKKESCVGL", "UniProt P02647": "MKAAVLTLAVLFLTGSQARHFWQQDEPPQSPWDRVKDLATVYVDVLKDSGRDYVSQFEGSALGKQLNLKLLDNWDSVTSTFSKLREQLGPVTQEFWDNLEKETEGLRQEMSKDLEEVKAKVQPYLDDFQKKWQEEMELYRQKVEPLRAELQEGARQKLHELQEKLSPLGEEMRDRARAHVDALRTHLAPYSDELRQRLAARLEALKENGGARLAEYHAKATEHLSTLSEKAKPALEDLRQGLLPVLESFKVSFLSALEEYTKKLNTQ"},
  "source": "paper PMC8508650",
  "target": "butyrylcholinesterase (human (endogenous in serum)) (UniProt P06276)",
  "experiment": "affinity purification with mass spectrometry; SEC fractions 6, 8 and 10 of human serum loaded on 50 µL Hupresin AC Sepharose (binds BChE); washed only 2 times with 200 µL 100 mM NaCl, 20 mM Tris-HCl pH 7.4; eluted with 0.5 M trimethylammonium chloride; eluate identified by LC-MS/MS (Mascot)",
  "note": "No constants are given. Whether binding was seen depends on the method and setting. In cells and extracts the contact can be indirect. A yes stands for co-enrichment or nearness to the bait. Other partners may have been found.",
  "data": [
    {"substance": "ApoA-I (from UniProt P02647)", "values": [
      {"measurement": "binding", "value": "binds"}
    ]}
  ]
}
